PubChem BioAssay AID602196, INSERM | 2012

- Aim: 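Knock-downs that protect lung cancer cells from cisplatin or sensitise them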
- Cells: human A549 lung cancer cells
- Reagents: siRNA pair against human genes
- Time to read-out: 48 h transfection before cisplatin; time from cisplatin to read-out not stated
- Treatment: cisplatin at a dose killing half of control-siRNA cells; exact dose and duration not given
- Detection: 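Shift in cisplatin death relative to control siRNA, from -50 (all cells die) to +50 (no cells die); siRNAs harmful on their own scored 0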
- Scale: two-siRNA summed score (-2 to +2): higher = both siRNAs protect from cisplatin killing; -2 means both sensitise
- Call rule: 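siRNAs harmful alone (LDH or WST-1) get 0; others get +1 for less and -1 for more cisplatin killing; genes are active when the two siRNAs give the same sign, summing to ±2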
- Meaning of the calls: active = both siRNAs shift cisplatin killing the same way; inactive = no consistent shift, or siRNA harmful alone
The whole screen tested about 23,000 reagents; below is an unselected part. 455 of all reagents (2%) count as active. 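Active includes both protection and sensitisation; some change values fall well beyond the stated -50 to +50 range.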 Not all columns of the deposit are shown. Not stated in the record: the amount of reagent.

target gene	two-siRNA summed score (-2 to +2)	call
TSGA10IP	1	inactive
SDCBP	0	inactive
LOC440043	0	inactive
CNTNAP3	-1	inactive
LINC00614	0	inactive
LOC440765	0	inactive
SOX1	1	inactive
LOC401859	1	inactive
LOC391258	0	inactive
LOC401132	0	inactive
LOC400687	0	inactive
EMC9	0	inactive
KRT73	0	inactive
H3C3	0	inactive
LOC146167	0	inactive
COXFA4L2	0	inactive
REPS2	0	inactive
THBS3	-1	inactive
DYNLT1	0	inactive
ECE1	0	inactive
MAPK1IP1L	1	inactive
LOC392525	1	inactive
MEGF6	-1	inactive
PACS2	0	inactive
KCMF1	0	inactive
LOC389428	0	inactive
P2RY11	1	inactive
POLI	0	inactive
SPRR1A	0	inactive
VSX2	1	inactive
CFHR5	0	inactive
MRPS33	1	inactive
KGD4	0	inactive
LOC389316	0	inactive
TMPRSS11B	1	inactive
DOK5	0	inactive
FANCE	0	inactive
LOC285900	1	inactive

Taken from above.
CNTNAP3, call: inactive
For “two-siRNA summed score (-2 to +2)”, DOK5 has 0
VSX2, call → inactive
Value of FANCE under “two-siRNA summed score (-2 to +2)”: 0
Under “call”, KRT73 has inactive
MRPS33, two-siRNA summed score (-2 to +2) → 1

Next reagents:
target gene	two-siRNA summed score (-2 to +2)	call
ALPK3	2	active
LOC440767	1	inactive
RDH8	0	inactive
EBP	-1	inactive
BBS12	0	inactive
CTXN1	0	inactive
NELL1	0	inactive
OR4K17	0	inactive
CSF1	0	inactive
ZNF211	1	inactive
FBXL20	-1	inactive
ENOX1	0	inactive
WDR55	0	inactive
ANXA5	0	inactive
TMEM132A	0	inactive
RAD51	0	inactive
TRIM52	0	inactive
TRDMT1	-1	inactive
DORIP1	0	inactive
